{
  "sequences": {"note": "By UniProt entry, the sequences of proteins in these tests, tags left out.", "UniProt P53350, whole entry, looked up": "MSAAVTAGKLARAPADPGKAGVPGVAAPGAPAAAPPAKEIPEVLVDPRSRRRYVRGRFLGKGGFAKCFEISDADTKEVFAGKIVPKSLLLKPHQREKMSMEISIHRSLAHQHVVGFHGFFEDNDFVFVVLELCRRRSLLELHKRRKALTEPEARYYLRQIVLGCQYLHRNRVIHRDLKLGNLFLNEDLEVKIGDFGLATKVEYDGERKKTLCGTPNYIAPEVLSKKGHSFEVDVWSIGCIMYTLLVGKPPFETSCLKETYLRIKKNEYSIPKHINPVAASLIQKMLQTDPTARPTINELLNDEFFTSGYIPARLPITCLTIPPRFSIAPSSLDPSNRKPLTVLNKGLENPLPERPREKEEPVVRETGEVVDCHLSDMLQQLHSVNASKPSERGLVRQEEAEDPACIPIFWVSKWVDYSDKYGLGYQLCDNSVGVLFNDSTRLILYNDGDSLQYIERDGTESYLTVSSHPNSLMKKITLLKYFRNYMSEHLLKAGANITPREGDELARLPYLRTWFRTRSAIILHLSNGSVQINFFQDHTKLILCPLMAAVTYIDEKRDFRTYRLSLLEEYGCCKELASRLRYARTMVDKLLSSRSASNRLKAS"},
  "source": "PubChem BioAssay AID720504",
  "about": "(National Center for Advancing Translational Sciences (NCATS), 2013)",
  "note": "Screen size: about 360,000 compounds; about 10,000 (2.8%) were called active. Inconclusive results, whose numbers are uncertain, are shown with a selection of clear calls. Calls come from the whole dose curve; as a rule, active = well fitted inhibition curve with a large enough effect; inconclusive = small, poorly fitted or top-dose-only effect; inactive = flat fitted curve, though single readings scatter. Potencies of inconclusive entries are doubtful fits and often do not repeat. % is set by controls: 0 for no effect and ±100 for the full control effect; potency is the fitted concentration of half-maximal effect.",
  "data": [
    {"target": "Serine/threonine-protein kinase PLK1 (Homo sapiens) (UniProt P53350)", "test": "qHTS for Inhibitors of PLK1-PDB (polo-like kinase 1 - polo-box domain): Primary Screen; note: nearly all actives have a fitted effect of over 65% in size; for max response, negative = inhibition: series mostly up to about 57 µM", "details": "Plk1 PBD binding of FITC phosphopeptide, fluorescence polarization", "values": [
      {"smiles": "CCCCCCSc1nc(O)c(C2OC(=O)c3c2ccc(OC)c3OC)c(=O)n1CC", "note": "(stereo not given)", "Potency": "inconclusive: 26.7 µM [inhibitor, partial curve]"},
      {"smiles": "CCOc1ccc(C(=S)N2CCCC2)cc1OCC", "Potency": "inconclusive: 23.8 µM [inhibitor, partial curve]"},
      {"smiles": "OC(CN1CCN(C(c2ccccc2)c2ccccc2)CC1)c1ccc(Br)cc1", "note": "(stereo not given)", "max response, negative = inhibition": "inactive: 8.82%"},
      {"smiles": "COc1ccc(C(C)(O)c2nc(-c3ccc4c(c3)OCO4)cs2)cc1", "note": "(stereo not given)", "max response, negative = inhibition": "inactive: -8%"},
      {"smiles": "COC(=O)C1=C(C)N(CCC2=CCCCC2)C(=O)C1", "Potency": "inconclusive: 37.7 µM [inhibitor, single point]"},
      {"smiles": "O=C(O)C(O)Cc1c[nH]c2ccccc12", "note": "(stereo not given)", "max response, negative = inhibition": "inactive: -11.6%"},
      {"smiles": "O=C(O)c1ccc(-c2nc(-c3cccc(C(F)(F)F)c3)cs2)cc1", "Potency": "inconclusive: 37.7 µM [inhibitor, single point]"},
      {"smiles": "N#Cc1c(NC(=O)CSc2ncnc3sccc23)oc(-c2ccco2)c1-c1ccco1", "Potency": "inconclusive: 26.7 µM [inhibitor, partial curve]"},
      {"smiles": "CC(C)C[C@H](NC(=O)c1nc[nH]c1C(=O)N[C@@H](CC(C)C)C(=O)OC(C)(C)C)C(=O)OC(C)(C)C", "max response, negative = inhibition": "inactive: -13.5%"},
      {"smiles": "COC(=O)Cc1ccc(NC(=S)NCc2ccc(S(N)(=O)=O)cc2)cc1", "Potency": "inconclusive: 23.8 µM [inhibitor, partial curve]"},
      {"smiles": "S=C(NNC(=S)Nc1ccccc1)Nc1ccccc1", "Potency": "inconclusive: 26.7 µM [inhibitor, single point]"},
      {"smiles": "S=C(NCC1CCCO1)Nc1ccc(Nc2ccccc2)cc1", "note": "(stereo not given)", "Potency": "inconclusive: 26.7 µM [inhibitor, partial curve]"},
      {"smiles": "COC(=O)c1c(-c2ccc(C(C)(C)C)cc2)csc1NC(=O)C1C2CCC(O2)C1C(=O)O", "note": "(stereo not given)", "Potency": "active: 2.67 µM"},
      {"smiles": "Nc1cc(N)c(OCC(F)(F)F)cc1OCC(F)(F)F", "Potency": "inconclusive: 21.2 µM [inhibitor, partial curve]"},
      {"smiles": "O=[N+]([O-])c1cnc(Sc2ccncn2)s1", "Potency": "active: 0.67 µM"},
      {"smiles": "COc1cccc2cccc(/C=N/n3cnnc3)c12", "Potency": "inconclusive: 8.44 µM [inhibitor, single point]"},
      {"smiles": "CCOC(=O)c1c(C)[nH]c(C(=O)COC(=O)CCSc2ccccc2)c1C", "Potency": "inconclusive: 23.8 µM [inhibitor, single point]"},
      {"smiles": "Cc1cc(NC(=O)CCC(=O)N(CC(=O)NC2CCCC2)Cc2ccc(F)cc2)no1", "max response, negative = inhibition": "inactive: 0.505%"},
      {"smiles": "CCc1ccc2c(c1)C1(C(=O)N2)N2CCCC2C(C(=O)c2ccc3ccccc3c2)C12C(=O)Nc1ccccc12", "note": "(stereo not given)", "max response, negative = inhibition": "inactive: 13.7%"},
      {"smiles": "COc1ccc(N(C)C(=O)c2cc3c(s2)-c2ccccc2OC3)c(OC)c1", "Potency": "inconclusive: 18.9 µM [inhibitor, partial curve]"},
      {"smiles": "O=C(Nc1ncc([N+](=O)[O-])s1)C1COc2ccccc2O1", "note": "(stereo not given)", "Potency": "inconclusive: 29.9 µM [inhibitor, partial curve]"},
      {"smiles": "O=S(=O)(NC(=S)NC1CCCCC1)c1ccc(Br)cc1", "Potency": "inconclusive: 16.8 µM [inhibitor, partial curve]"},
      {"smiles": "COc1ccc(CNC(=O)CCNS(=O)(=O)c2ccc(NC(C)=O)cc2)cc1OC", "max response, negative = inhibition": "inactive: -2.27%"},
      {"smiles": "Cc1cc(C)nc(SC(C(=O)O)c2ccccc2)n1", "note": "(stereo not given)", "Potency": "inconclusive: 29.9 µM [inhibitor, single point]"},
      {"smiles": "CN(Cc1ccccc1)C(=S)Nc1cccnc1", "Potency": "active: 21.2 µM"},
      {"smiles": "COc1ccc(N2CCN(CC(=O)NCc3ccc(Cl)cc3)CC2)cc1", "Potency": "active: 15 µM"},
      {"smiles": "O=C1NC2=C(CCc3ccccc32)C(c2ccc(Br)cc2)N1", "note": "(stereo not given)", "Potency": "inconclusive: 29.9 µM [inhibitor, single point]"},
      {"smiles": "O=C(NCc1ccccc1F)C1CCCN1C(=O)Nc1ccccc1", "note": "(stereo not given)", "max response, negative = inhibition": "inactive: -0.463%"},
      {"smiles": "CN(c1cccc(NC(=O)CSc2ccc(Cl)cc2)c1)S(C)(=O)=O", "Potency": "inconclusive: 21.2 µM [inhibitor, partial curve]"},
      {"smiles": "Cc1ccc(C(=O)OCC(=O)c2c(N)n(C)c(=O)n(C)c2=O)cc1S(=O)(=O)N1CCOCC1", "max response, negative = inhibition": "inactive: -7.03%"},
      {"smiles": "Cc1cc(/C=C2\\SC(=S)NC2=O)c(C)n1-c1cccc(O)c1", "Potency": "inconclusive: 8.44 µM [inhibitor, partial curve]"},
      {"smiles": "Cc1ccc(/C=C/C(=O)NC2=NCCS2)cc1", "max response, negative = inhibition": "inactive: -11.5%"},
      {"smiles": "Cn1ncc2c1NC(c1ccc(F)cc1)SCC2=O", "note": "(stereo not given)", "Potency": "inconclusive: 26.7 µM [inhibitor, single point]"},
      {"smiles": "CC1(C)C(C=C(Cl)Cl)C1C(=O)Nc1ccc(S(=O)(=O)Nc2ncccn2)cc1", "note": "(stereo not given)", "Potency": "inconclusive: 37.7 µM [inhibitor, single point]"},
      {"smiles": "COc1ccc(NC(=O)CSc2nc3nc(C)cc(C)c3c(=O)[nH]2)cc1", "max response, negative = inhibition": "inactive: -22.2%"},
      {"smiles": "COc1ccc(N)cc1-n1c(C)ccc1C", "Potency": "inconclusive: 29.9 µM [inhibitor, partial curve]"},
      {"smiles": "N#Cc1c(-c2cccs2)nc(SCc2ccc(Cl)cc2)[nH]c1=O", "Potency": "active: 21.2 µM"},
      {"smiles": "COc1cc(C=C2C(=O)OC(C)(C)OC2=O)cc(Cl)c1OCC(=O)Nc1ccccc1", "Potency": "inconclusive: 33.6 µM [inhibitor, partial curve, poor fit]"},
      {"smiles": "Cc1ccc(CCC(=O)Nc2ccc(S(N)(=O)=O)cc2)o1", "max response, negative = inhibition": "inactive: -17.6%"},
      {"smiles": "CCOC(=O)c1ccc(N=C2SC(C(=O)Nc3ccc(C(=O)O)cc3)CC(=O)N2Cc2cccs2)cc1", "note": "(stereo not given)", "Potency": "inconclusive: 29.9 µM [inhibitor, single point]"},
      {"smiles": "CC(=O)CCC(=O)OCC(=O)Nc1ccc(SC(F)F)cc1", "Potency": "inconclusive: 16.8 µM [inhibitor, partial curve]"},
      {"smiles": "COc1cccc(NC(=O)c2sc3nc(N4CCOCC4)c4c(c3c2N)CCCC4)c1", "Potency": "inconclusive: 16.8 µM [inhibitor, partial curve]"},
      {"smiles": "Cc1ccc(OCC(O)CNCc2ccccc2)cc1C", "note": "(stereo not given)", "max response, negative = inhibition": "inactive: -13%"},
      {"smiles": "Cc1cc(C)nc(SCC(=O)NNS(=O)(=O)c2ccc(C#N)cc2)n1", "Potency": "inconclusive: 33.6 µM [inhibitor, partial curve]"},
      {"smiles": "CCNC(=O)Oc1ccc[nH]c1=O", "Potency": "inconclusive: 29.9 µM [inhibitor, single point]"},
      {"smiles": "Cc1ccc(-c2cc(C(=O)NCCCn3ccnc3)c3cc(Br)ccc3n2)o1", "Potency": "active: 23.8 µM"},
      {"smiles": "O=C(N/N=C/c1ccccn1)c1ccc(Br)o1", "max response, negative = inhibition": "inactive: 0.209%"},
      {"smiles": "CCOC(=O)C(NC(=O)c1ccccc1)(N1CCOCC1)C(F)(F)F", "note": "(stereo not given)", "Potency": "inconclusive: 26.7 µM [inhibitor, partial curve]"},
      {"smiles": "CCOc1ccccc1NC(=O)Cc1cccs1", "Potency": "inconclusive: 26.7 µM [inhibitor, partial curve]"},
      {"smiles": "COc1ccc(/C=N/NC(=O)c2cc(O)c(O)c(O)c2)cc1Cn1cc([N+](=O)[O-])cn1", "Potency": "inconclusive: 37.7 µM [inhibitor, single point]"},
      {"smiles": "Cc1cccc(N2N=C(C(=O)N3Cc4ccccc4CC3C(N)=O)CCC2=O)c1", "note": "(stereo not given)", "max response, negative = inhibition": "inactive: 0.226%"},
      {"smiles": "CNc1c([N+](=O)[O-])cnn1-c1ccccn1", "Potency": "inconclusive: 18.9 µM [inhibitor, single point]"},
      {"smiles": "COc1ccc(-c2ccc(C(c3c(C)[nH][nH]c3=O)c3c(C)[nH][nH]c3=O)o2)c([N+](=O)[O-])c1", "Potency": "active: 21.2 µM"},
      {"smiles": "Cc1cc(N2CCN(C(=O)c3[nH]c(C(F)(F)F)nc3-c3ccccc3)CC2)c2ccccc2n1", "max response, negative = inhibition": "inactive: -0.768%"},
      {"smiles": "COc1ccc(OCC(=O)Nc2cccc(C(=O)Nc3ccccc3C(=O)O)c2)cc1", "max response, negative = inhibition": "inconclusive: -32.5% [inhibitor]"},
      {"smiles": "Cc1ccc(S(=O)(=O)N(C)CC(=O)OCC(=O)Nc2ccccc2)cc1", "Potency": "inconclusive: 37.7 µM [inhibitor, partial curve, poor fit]"},
      {"smiles": "CN(C)CC(CCCCC(CN(C)C)C(=O)c1ccccc1)C(=O)c1ccccc1", "note": "(stereo not given)", "max response, negative = inhibition": "inactive: -4.04%"},
      {"smiles": "O=C(O)c1ccc(CNC(=O)c2ccc(C(F)(F)F)cc2)cc1", "Potency": "inconclusive: 26.7 µM [inhibitor, single point]"},
      {"smiles": "COC(=O)C1=C(C(=O)OC)[C@@H]2Nc3ccccc3[C@@]23C[C@@H](C(=O)OC)N(C(=O)NC2CCCCC2)C3=N1", "max response, negative = inhibition": "inconclusive: -32.6% [inhibitor]"},
      {"smiles": "CCCCCC(=O)Cc1cc(O)cc2c1C(=O)Oc1cc(O)c(C(=O)O)c(CCCCC)c1O2", "Potency": "active: 23.8 µM"},
      {"smiles": "N#CCCN(C(=O)CSc1ccc2c(c1)OCCO2)c1ccc(F)cc1", "Potency": "inconclusive: 23.8 µM [inhibitor, partial curve]"},
      {"smiles": "CCOC(=O)C1CCN(c2cc3c(cc2NC(=O)c2cc(OC)ccc2Br)n(C)c(=O)n3C)CC1", "Potency": "inconclusive: 21.2 µM [inhibitor, partial curve]"},
      {"smiles": "CCn1c(O)c(/C=C2\\C=NN=C2c2ccc(C)cc2)sc1=S", "Potency": "inconclusive: 26.7 µM [inhibitor, single point]"},
      {"smiles": "O=Cc1cccn1-c1cccc([N+](=O)[O-])c1", "Potency": "inconclusive: 16.8 µM [inhibitor, partial curve]"},
      {"smiles": "O=C(c1cc(-c2ccc(Cl)cc2)on1)N1CCCCCC1", "Potency": "active: 26.7 µM"},
      {"smiles": "Cc1cccc(N2CC(C(=O)Nc3nc4ccc(S(C)(=O)=O)cc4s3)CC2=O)c1C", "note": "(stereo not given)", "max response, negative = inhibition": "inconclusive: -31% [inhibitor]"},
      {"smiles": "O=C(CCn1cnnn1)NC1CCCN(Cc2ccccc2F)C1", "note": "(stereo not given)", "max response, negative = inhibition": "inactive: -6.3%"},
      {"smiles": "Oc1ccc2ccccc2c1C=NCc1cn2ccsc2n1", "Potency": "inconclusive: 21.2 µM [inhibitor, partial curve]"},
      {"smiles": "CCCc1[nH]nc2c1C(c1ccc(OC)c(CSC3=NCCS3)c1)C(C#N)=C(N)O2", "note": "(stereo not given)", "Potency": "inconclusive: 11.9 µM [inhibitor, partial curve]"},
      {"smiles": "CC(=O)c1cccc(NC(=O)N2CCCC2C(=O)Nc2cccc(C)c2)c1", "note": "(stereo not given)", "max response, negative = inhibition": "inactive: -1.47%"}
    ]}
  ]
}
